# Measurements reported in PubChem BioAssay AID602196 (INSERM, 2012)
# Aim: 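Knock-downs that protect lung cancer cells from cisplatin or sensitise them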
# Cells: human A549 lung cancer cells
# Reagent: siRNA pair against human genes
# Time to read-out: 48 h transfection before cisplatin; time from cisplatin to read-out not stated
# Challenge: cisplatin at a dose killing half of control-siRNA cells; exact dose and duration not given
# Read-out: 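Cisplatin cell death as a shift from the 50% death seen with control siRNA; siRNAs toxic or growth-blocking alone scored 0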
# Reading the numbers: two-siRNA summed score (-2 to +2): higher = both siRNAs protect from cisplatin killing; -2 means both sensitise; mean protection from cisplatin (shift in death) and protection from cisplatin (shift in death), siRNA C and protection from cisplatin (shift in death), siRNA D: higher = protection from cisplatin killing
# Rule for the call: 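Each siRNA scores 0 if harmful alone by LDH or WST-1, otherwise +1 if it reduces and -1 if it increases cisplatin killing; a gene is active when both siRNAs agree (sum +2 or -2)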
# Meaning of the calls: active = both siRNAs shift cisplatin killing the same way; inactive = no consistent shift, or siRNA harmful alone
# This is a random part of about 23,000 reagents tested. 455 of all reagents (2%) count as active. 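Active includes both protection and sensitisation; some change values fall well beyond the stated -50 to +50 range.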 Not stated in the record: the amount of reagent.
two-siRNA summed score (-2 to +2),mean protection from cisplatin (shift in death) (%),"protection from cisplatin (shift in death), siRNA C (%)","protection from cisplatin (shift in death), siRNA D (%)",outcome,gene symbol,PubChem SID
1,0.8,6.8,-5.3,inactive,EFCAB5,SID131519012
0,1.6,-10.3,13.6,inactive,CERK,SID131508952
0,4.5,-3.7,12.7,inactive,LOC400725,SID131511570
-1,-10.4,6.9,-27.6,inactive,ARL3,SID131501341
0,-3.3,2.3,-9,inactive,LOC441672,SID131505325
0,0.9,3.9,-2,inactive,DSCC1,SID131508353
0,7.8,16.9,-1.2,inactive,S1PR4,SID131514458
0,-4.5,-18.5,9.5,inactive,TWIST1,SID131504769
1,17.9,29.9,5.9,inactive,H3C8,SID131522352
0,1,2.2,-0.2,inactive,SPTLC3,SID131508407
0,-6.7,-3,-10.4,inactive,UNC5C,SID131504054
1,10.7,12.9,8.5,inactive,CEP162,SID131520664
0,-2.2,-6.9,2.5,inactive,SACM1L,SID131505999

Continued (3 carried over from the part before).
two-siRNA summed score (-2 to +2),mean protection from cisplatin (shift in death) (%),"protection from cisplatin (shift in death), siRNA C (%)","protection from cisplatin (shift in death), siRNA D (%)",outcome,gene symbol,PubChem SID
0,-6.7,-3,-10.4,inactive,UNC5C,SID131504054
1,10.7,12.9,8.5,inactive,CEP162,SID131520664
0,-2.2,-6.9,2.5,inactive,SACM1L,SID131505999
1,14.7,21.3,8,inactive,KHDRBS3,SID131521741
0,4.4,3.4,5.3,inactive,IGF1,SID131511436
2,22.8,24.8,20.7,active,LOC391345,SID131523166
0,2.9,-4.2,10.1,inactive,DLG5,SID131510156
0,0.7,4.1,-2.7,inactive,MLIP,SID131508161
0,16.2,27.1,5.2,inactive,LOC400962,SID131518047
0,3.4,4.4,2.5,inactive,MELK,SID131510616
0,3.5,14.8,-7.7,inactive,KIAA1786,SID131510704
1,26.2,35.8,16.6,inactive,SLCO2A1,SID131522836
-1,-29.5,-35.9,-23.1,inactive,NCKAP1,SID131500443
